# Primary screen of a compound library

Data taken from ChEMBL document CHEMBL3988442, “University of Dundee, Small-Polar-MMV Screening Library” (2021).

A: 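Whole-cell assay for inhibitors of Mycobacterium tuberculosis growth, labelled Cornell in the record; the read-out is not stated. The concentration is filed as 10 mM, unlikely as a test dose, so the dose is not known. Higher means stronger inhibition (inferred from two other growth screens of the library). About 53,000 compounds were tested under these conditions; 1.7% (about 900) showed 50% or more at least once.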
B: 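Assay on Mycobacterium tuberculosis, filed only as a heat shock assay from Cornell; the read-out is not stated. The concentration is filed as 10 mM, unlikely as a test dose, so the dose is not known. The record gives no direction; compounds that gave an IC50 in retests scored well above the rest, so higher reads as stronger inhibition. About 69,000 compounds were tested under these conditions; 1.4% (about 930) showed 50% or more at least once.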

The filed quantity is “Percent Effect” (%).
The controls that fix the scale are not given in the record; negative values are as filed.
This is an unselected part of the compounds tested.
A dash means the value is not listed here; it may have been measured.

Compound,A,B
CNS(=O)(=O)c1ccc(CN2CCN3CCNC(=O)C3C2)cc1 (centres unmarked),25.63%,9.73%
CC(C)c1nnc2ccc(N3CCC(C(=O)Nc4nccs4)CC3)nn12,-,13.65%
[H][C@]12CCCC(=O)N[C@@]1(C)CCCCN2C(=O)c1ccccn1,-19.98%,3.633%
COc1cc(CN2CCC3(CC2)[C@H](O)C[C@@H]3OCCO)ccc1F,17.69%,-6.38%
O=C(CCc1ccccc1)C1CCCN(C(=O)c2ncc(F)cc2F)C1 (centres unmarked),10.58%,-1.357%
CCc1cnc(NCCCN2CCC(O)CC2)nc1,-,-20.46%
CC(C)Cn1cncc1CNC1CCSCC1,5.219%,-7.01%
O=C(O)C(F)(F)F.O=C(O)C(F)(F)F.[H][C@@]12COC[C@]1([H])[C@@H](OCc1csc(C)n1)CN2Cc1cccc(C)n1,-14.37%,-14.33%
CN(C)C(=O)CN1CCOCC2(C1)CN(c1ncc(F)cn1)CCO2.O=C(O)C(F)(F)F (centres unmarked),-4.506%,27.25%
CN(C)Cc1ccnc(C2CCCN2Cc2cc3ccccc3s2)n1 (centres unmarked),28.39%,-3.087%
CCc1nc(CCNC(=O)Nc2cc(C(N)=O)sc2C)cs1,-5.094%,0.291%
CCn1c(C)cc(C(=O)NCc2cccc(NS(C)(=O)=O)c2)c1C,-48%,-13.06%
Cc1[nH]c(C2(N)CCCCC2)nc(=O)c1C.Cl,7.868%,-14.12%
COc1c(CNC2CCN(c3ncccn3)CC2)c(C(C)C)nn1C,21.07%,-15.99%
CCc1nc(C2CCCN2C(=O)Cc2cccs2)no1 (centres unmarked),-13.43%,-7.055%
COCCC(=O)NCc1ccc(-c2ccccc2C(=O)O)cn1,57.39%,-3.502%
COCCN(Cc1ccccc1C)c1nc(C)nc2oc(C)nc12,14.85%,-7%
Cc1cccc(C(C)(C)CNC(=O)CN(C)S(=O)(=O)c2cccnc2)c1,-8.903%,16.09%
CSc1nccc(N2CCC(NCc3nc(C)cc(C)n3)CC2)n1,-,-0.1403%
Cc1cccc(CNC[C@H]2Cn3cc(-c4ccccc4)nc3CO2)n1,23.55%,-2.06%
O=C1N(CC2CC2)C(c2c[nH]nc2-c2cccnc2)NC12CCCC2 (centres unmarked),-5.256%,0.4664%
CSC(CNS(C)(=O)=O)c1cccc(Cl)c1 (centres unmarked),-20.96%,-8.913%
CN(C)C(=O)CN1CCC2(CC1)CC(=O)c1ccc3ccccc3c1O2,6.972%,19.62%
CN(C)c1ncccc1CNC(=O)CCNc1ncccn1,29.98%,-8.23%
COc1ccc(S(=O)(=O)NCC(c2cccn2C)N(C)C)cc1F (centres unmarked),36.63%,-13.36%
CN(C)CCOCC1CN(C(=O)N2CCCC2)Cc2ccnn2C1.O=C(O)C(F)(F)F.O=C(O)C(F)(F)F (centres unmarked),27.66%,-11.38%
Cc1cc(CS(=O)(=O)NCC2CCCCC2)on1,1.195%,36.17%
CNc1cc2c(nn1)CCN(C(=O)c1coc(Br)c1)C2,-,-10.59%
Cc1cccc(C(=O)N2CCCN(Cc3cscn3)CC2)c1,-,-19.76%
CCOc1ccc(OCc2nccc(-c3cc(C(=O)O)ccn3)n2)cc1,11.5%,-4.065%
O=C(NCCNc1cnccn1)N1CCc2ccccc2C1,-,-20.27%
CCC[C@H]1CN(Cc2ccc(N(C)C)nc2)C[C@@H]1NC(=O)CSC,5.477%,-11.77%
O=C(Nc1nc(-c2ccccc2)ns1)N1CCC(F)CC1,13.41%,-2.026%
COc1ccc(-c2nc(CCNc3nnc(C)c(C)c3C#N)co2)cc1,-0.3617%,14.81%
[H][C@]12CC[C@]([H])(CN(C(=O)CCc3n[nH]c(C)c3C)C1)N(CCOC)C2=O,-12.84%,8.165%
CCN(Cc1ccc(Cl)c(Cl)c1)C(=O)CCn1cncn1,14.8%,-3.472%
Cc1ccc(CNc2ccc(N3CCC(CO)CC3)cn2)o1,32.25%,-5.754%
CCc1cc(N(C)Cc2nonc2C)nc(N(C)C)n1,14.69%,13.1%
CCN1CCN(Cc2c(-c3ccco3)[nH]c3ncccc23)CC1,-,-2.284%
NC(=O)NCC(=O)N1CCCC(OCc2cccnc2)C1 (centres unmarked),-45.31%,-33.9%
CCc1cc(C(=O)N2CCC(Nc3ccc(C)nn3)CC2)sc1C,-,13.32%
Cc1cc(C)cc(OCCC(=O)N2CCCC(n3cncn3)C2)c1 (centres unmarked),8.63%,5.963%
Cc1sc2nc(CCN)nc(N3CCS(=O)(=O)CC3)c2c1C,0.7058%,12.97%
CC(=O)Nc1ncc(S(=O)(=O)N2CCCC(C)C2)s1 (centres unmarked),8.83%,9.571%
C[C@@H]1CN(C(=O)CCN2CCCC2)CC[C@@]1(O)C1CCOCC1,11.03%,8.467%
CCN(CCc1ccccc1)Cn1nc(C)c2c(C)onc2c1=O,-2.886%,-6.576%
CCC(CC)C(=O)N1CCc2nc(N3CCCC3)nc(C)c2CC1,-14.19%,-14.01%
[H][C@]12CC[C@]([H])(CN(S(=O)(=O)c3ccc(Cl)cc3Cl)C1)N(C)C2=O,-,-23.32%
Cc1nn(C)c2cn(C(C)C(=O)NCc3ccccn3)nc12 (centres unmarked),-,18.44%
CN(Cc1ccc(O)cc1)C(=O)NC1CCCN(c2ncccn2)C1 (centres unmarked),-,-20.97%